Positions count from the first letter of the chain named. Results are given in words; binding and its absence hold for the method and conditions named. In cells and extracts the contact can be indirect. Some binding calls cover weakened binding; strength is not graded here. Where a sequence is shown, tags or fusion partners need not be part of it.

The target in assay [1] is T1, human full-length Flag-HA-tagged hSMG9 M390R, Y515R (human) (UniProt Q9H0W8).
T1 sequence: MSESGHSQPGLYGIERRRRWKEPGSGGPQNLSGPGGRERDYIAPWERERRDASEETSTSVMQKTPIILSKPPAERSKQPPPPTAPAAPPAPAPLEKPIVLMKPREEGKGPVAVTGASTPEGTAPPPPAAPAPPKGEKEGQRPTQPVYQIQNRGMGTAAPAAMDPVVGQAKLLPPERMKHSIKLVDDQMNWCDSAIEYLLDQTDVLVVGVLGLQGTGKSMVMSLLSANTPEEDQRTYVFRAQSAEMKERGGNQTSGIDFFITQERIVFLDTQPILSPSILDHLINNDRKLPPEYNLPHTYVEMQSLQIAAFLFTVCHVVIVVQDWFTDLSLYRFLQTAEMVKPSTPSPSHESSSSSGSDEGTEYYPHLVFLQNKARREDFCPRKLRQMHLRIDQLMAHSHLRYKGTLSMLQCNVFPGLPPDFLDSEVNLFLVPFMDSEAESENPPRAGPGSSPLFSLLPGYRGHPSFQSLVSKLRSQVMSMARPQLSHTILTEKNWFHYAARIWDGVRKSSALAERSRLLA
The assay is described as follows: co-IP; HA-hSMG8 and Flag-HA-hSMG9 transiently coexpressed in HEK293T; lysate in 50 mM Tris pH 7.4, 150 mM NaCl; Anti-Flag M2 beads 1 h at 4°C; washes with 300 mM NaCl; flag peptide elution; anti-HA Western blot.

Assay [2] has as its target T2, human full-length Flag-HA-tagged hSMG9, wild-type (human) (UniProt Q9H0W8).
T2 sequence: T1 sequence with R390M, R515Y
The description is as above.

B1: human full-length HA-tagged hSMG8 (protein, UniProt Q8ND04 1-991)
chain: MAGPVSLRDLLMGASAWMGSESPGGSPTEGGGSAAGGPEPPWREDEICVVGIFGKTALRLNSEKFSLVNTVCDRQVFPLFRHQDPGDPGPGIRTEAGAVGEAGGAEDPGAAAGGSVRGSGAVAEGNRTEAGSQDYSLLQAYYSQESKVLYLLLTSICDNSQLLRACRALQSGEAGGGLSLPHAEAHEFWKHQEKLQCLSLLYLFSVCHILLLVHPTCSFDITYDRVFRALDGLRQKVLPLLKTAIKDCPVGKDWKLNCRPCPPRLLFLFQLNGALKVEPPRNQDPAHPDKPKKHSPKRRLQHALEDQIYRIFRKSRVLTNQSINCLFTVPANQAFVYIVPGSQEEDPVGMLLDQLRSHCTVKDPESLLVPAPLSGPRRYQVMRQHSRQQLSFHIDSSSSSSSGQLVDFTLREFLWQHVELVLSKKGFDDSVGRNPQPSHFELPTYQKWISAASKLYEVAIDGKEEDLGSPTGELTSKILSSIKVLEGFLDIDTKFSENRCQKALPMAHSAYQSNLPHNYTMTVHKNQLAQALRVYSQHARGPAFHKYAMQLHEDCYKFWSNGHQLCEERSLTDQHCVHKFHSLPKSGEKPEADRNPPVLYHNSRARSTGACNCGRKQAPRDDPFDIKAANYDFYQLLEEKCCGKLDHINFPVFEPSTPDPAPAKNESSPAPPDSDADKLKEKEPQTQGESTSLSLALSLGQSTDSLGTYPADPQAGGDNPEVHGQVEVKTEKRPNFVDRQASTVEYLPGMLHSNCPKGLLPKFSSWSLVKLGPAKSYNFHTGLDQQGFIPGTNYLMPWDIVIRTRAEDEGDLDTNSWPAPNKAIPGKRSAVVMGRGRRRDDIARAFVGFEYEDSRGRRFMCSGPDKVMKVMGSGPKESALKALNSDMPLYILSSSQGRGLKPHYAQLMRLFVVVPDAPLQIILMPQVQPGPPPCPVFYPEKQEITLPPDGLWVLRFPYAYVTERGPCFPPKENVQLMSYKVLRGVLKAVTQ
On to B1, for which the binding result is “binds weakly” in assay [1] and “binds” in assay [2].

Source of the values: paper PMC5473137, “Structure of a SMG8–SMG9 complex identifies a G-domain heterodimer in the NMD effector proteins” (RNA, 2017).
